In patent publication US7199138B2, “Substituted anthranilamides for controlling invertebrate pests” (E. I. du Pont de Nemours and Company, priority 2001, dated 2007):
Some results were stated once for a whole list of compounds, not compound by compound. At least one structure is not confirmed: it was looked up by name or label, or the drawing left a doubt.

Assays:
Assay type in all cases: in vivo
[1] = tested on: diamondback moth (Plutella xylostella); test: Test A: control of diamondback moth, foliar spray on radish plant; details: sprayed at 50 ppm; radish plant pre-infested with neonate larvae; 6 days at 25° C.; visually assessed
[2] = tested on: fall armyworm (Spodoptera frugiperda); test: Test B: control of fall armyworm, foliar spray on corn (maize) plant; details: sprayed at 50 ppm; corn (maize) plant pre-infested with 1-day-old larvae; 6 days; visually rated
[3] = tested on: green peach aphid (Myzus persicae); test: Test E: control of green peach aphid through contact and/or systemic means, radish plant; details: sprayed at 250 ppm; radish plant pre-infested with aphids; 6 days at 19–21° C.; visually assessed
[4] = tested on: beet armyworm (Spodoptera exigua); test: Test D: control of beet armyworm, foliar spray on corn plant; details: sprayed at 50 ppm; corn plant pre-infested with 1-day-old larvae; 6 days; visually rated
[5] = tested on: tobacco budworm (Heliothis virescens); test: Test C: control of tobacco budworm, foliar spray on cotton plant; details: sprayed at 50 ppm; cotton plant pre-infested with 2-day-old larvae; 6 days; visually rated

SMILES | feeding damage (excellent levels of plant protection) [1] | feeding damage (excellent levels of plant protection) [2] | mortality [3] | feeding damage (excellent levels of plant protection) [4] | feeding damage (excellent levels of plant protection) [5]
Cc1cccc(C(=O)NC(C)C)c1NC(=O)c1cc(C(F)(F)F)nn1-c1ccccc1CNC(=O)C(F)(F)F [Compound 3] | ≤ 20% | ≤ 20% | – | – | –
CC(=O)Nc1cc(C)c(NC(=O)c2cc(C(F)(F)F)nn2-c2ncccc2Cl)c(C(=O)NC(C)C)c1 [Compound 6] | ≤ 20% | ≤ 20% | at least 80% | ≤ 20% | ≤ 20%
Cc1cc(NC(=O)C(F)(F)F)cc(C(=O)NC(C)C)c1NC(=O)c1cc(C(F)(F)F)nn1-c1ncccc1Cl [Compound 7] | ≤ 20% | ≤ 20% | at least 80% | ≤ 20% | ≤ 20%
Cc1cc(NC(=O)OC(C)(C)C)cc(C(=O)NC(C)C)c1NC(=O)c1cc(C(F)(F)F)nn1-c1ncccc1Cl [Compound 8] | ≤ 20% | ≤ 20% | – | ≤ 20% | ≤ 20%
Cc1cc(NC(=O)NC(C)C)cc(C(=O)NC(C)C)c1NC(=O)c1cc(C(F)(F)F)nn1-c1ncccc1Cl [Compound 9] | ≤ 20% | ≤ 20% | – | – | –
Cc1cc(NC(=O)c2ccccc2)cc(C(=O)NC(C)C)c1NC(=O)c1cc(C(F)(F)F)nn1-c1ncccc1Cl [Compound 10] | ≤ 20% | ≤ 20% | – | – | –
Cc1cc(NC(=O)Nc2ccccc2)cc(C(=O)NC(C)C)c1NC(=O)c1cc(C(F)(F)F)nn1-c1ncccc1Cl [Compound 11] | ≤ 20% | ≤ 20% | – | ≤ 20% | ≤ 20%
COC(=O)c1cc(C)c(NC(=O)c2cc(C(F)(F)F)nn2-c2ncccc2Cl)c(C(=O)NC(C)C)c1 [Compound 12] | ≤ 20% | ≤ 20% | – | ≤ 20% | ≤ 20%
Cc1cc(CO)cc(C(=O)NC(C)C)c1NC(=O)c1cc(C(F)(F)F)nn1-c1ncccc1Cl [Compound 13] | ≤ 20% | – | – | – | –
CNC(=O)c1cc(C(=O)OC)cc(C)c1NC(=O)c1cc(C(F)(F)F)nn1-c1ncccc1Cl [Compound 15] | ≤ 20% | ≤ 20% | – | ≤ 20% | ≤ 20%
Cc1cc(C(=O)O)cc(C(=O)NC(C)C)c1NC(=O)c1cc(C(F)(F)F)nn1-c1ncccc1Cl [Compound 16] | ≤ 20% | ≤ 20% | at least 80% | ≤ 20% | ≤ 20%
CCOC(=O)c1cc(C)c(NC(=O)c2cc(C(F)(F)F)nn2-c2ncccc2Cl)c(C(=O)NC(C)C)c1 [Compound 18] | ≤ 20% | ≤ 20% | – | ≤ 20% | ≤ 20%
Cc1cc(C(=O)NC(C)C)cc(C(=O)NC(C)C)c1NC(=O)c1cc(C(F)(F)F)nn1-c1ncccc1Cl [Compound 21] | ≤ 20% | ≤ 20% | – | ≤ 20% | ≤ 20%
CC(=NO)c1cc(C)c(NC(=O)c2cc(C(F)(F)F)nn2-c2ncccc2Cl)c(C(=O)NC(C)C)c1 [Compound 22] | ≤ 20% | ≤ 20% | at least 80% | ≤ 20% | ≤ 20%
CON=C(C)c1cc(C)c(NC(=O)c2cc(C(F)(F)F)nn2-c2ncccc2Cl)c(C(=O)NC(C)C)c1 [Compound 23] | ≤ 20% | ≤ 20% | at least 80% | ≤ 20% | ≤ 20%
CC(C)NC(=O)c1cc(N)cc(Cl)c1NC(=O)c1cc(C(F)(F)F)nn1-c1ncccc1Cl [Compound 28] | ≤ 20% | ≤ 20% | at least 80% | ≤ 20% | ≤ 20%
CNC(=O)c1cc(N)cc(C)c1NC(=O)c1cc(C(F)(F)F)nn1-c1ncccc1Cl [Compound 29] | ≤ 20% | ≤ 20% | at least 80% | ≤ 20% | ≤ 20%

SMILES | feeding damage (excellent levels of plant protection) [1] | feeding damage (excellent levels of plant protection) [2] | mortality [3] | feeding damage (excellent levels of plant protection) [4] | feeding damage (excellent levels of plant protection) [5]
Cc1cc(N)cc(C(=O)NC(C)(C)C)c1NC(=O)c1cc(C(F)(F)F)nn1-c1ncccc1Cl [Compound 30] | ≤ 20% | ≤ 20% | at least 80% | ≤ 20% | ≤ 20%
Cc1cc(NC(=O)CCCC(=O)O)cc(C(=O)NC(C)C)c1NC(=O)c1cc(C(F)(F)F)nn1-c1ncccc1Cl [Compound 32] | ≤ 20% | ≤ 20% | – | ≤ 20% | ≤ 20%
Cc1cc(NC(=O)c2ncccc2C(=O)O)cc(C(=O)NC(C)C)c1NC(=O)c1cc(C(F)(F)F)nn1-c1ncccc1Cl [Compound 33] | ≤ 20% | ≤ 20% | – | – | –
Cc1cccc(C(=O)NCC(N)=O)c1NC(=O)c1cc(C(F)(F)F)nn1-c1ncccc1Cl [Compound 34] | ≤ 20% | ≤ 20% | – | ≤ 20% | ≤ 20%
CCN(CC)C(=O)C(C)NC(=O)c1cc(Cl)cc(Cl)c1NC(=O)c1cc(C(F)(F)F)nn1-c1ncccc1Cl (centres unmarked) [Compound 43] | ≤ 20% | ≤ 20% | – | ≤ 20% | ≤ 20%
CCN(CC)C(=O)C(C)NC(=O)c1cc(Cl)cc(C)c1NC(=O)c1cc(Cl)nn1-c1ncccc1Cl (centres unmarked) [Compound 44] | ≤ 20% | ≤ 20% | – | ≤ 20% | ≤ 20%
CCN(CC)C(=O)C(C)NC(=O)c1cc(Cl)cc(C)c1NC(=O)c1cc(Br)nn1-c1ncccc1Cl (centres unmarked) [Compound 45] | ≤ 20% | ≤ 20% | – | ≤ 20% | ≤ 20%
CCN(CC)C(=O)C(C)NC(=O)c1cc(Cl)cc(C)c1NC(=O)c1cc(C(F)(F)F)nn1-c1ncccc1Cl (centres unmarked) [Compound 46] | ≤ 20% | ≤ 20% | – | ≤ 20% | ≤ 20%
CC(NC(=O)c1cc(Br)cc(Br)c1NC(=O)c1cc(Br)nn1-c1ncccc1Cl)C(N)=O (centres unmarked) [Compound 47] | ≤ 20% | ≤ 20% | – | – | –
Cc1cc(Cl)cc(C(=O)NC(C)C(=O)N(C)C)c1NC(=O)c1cc(Br)nn1-c1ncccc1Cl (centres unmarked) [Compound 49] | ≤ 20% | ≤ 20% | – | – | –
CON=CNC(=O)c1cc(Cl)cc(Cl)c1NC(=O)c1cc(C(F)(F)F)nn1-c1ncccc1Cl [Compound 52] | ≤ 20% | ≤ 20% | at least 80% | – | –
CON=CNC(=O)c1cc(Cl)cc(C)c1NC(=O)c1cc(Cl)nn1-c1ncccc1Cl [Compound 53] | ≤ 20% | ≤ 20% | at least 80% | – | –
CCNC(=O)OCC(C)NC(=O)c1cc(Cl)cc(Cl)c1NC(=O)c1cc(Br)nn1-c1ncccc1Cl (centres unmarked) [Compound 60] | ≤ 20% | ≤ 20% | at least 80% | – | –
CCNC(=O)OCC(C)NC(=O)c1cc(Cl)cc(C)c1NC(=O)c1cc(Cl)nn1-c1ncccc1Cl (centres unmarked) [Compound 62] | ≤ 20% | ≤ 20% | – | – | –
CCNC(=O)OCC(C)NC(=O)c1cc(Cl)cc(C)c1NC(=O)c1cc(Br)nn1-c1ncccc1Cl (centres unmarked) [Compound 63] | ≤ 20% | ≤ 20% | – | – | –
CCNC(=O)OCC(C)NC(=O)c1cc(Cl)cc(C)c1NC(=O)c1cc(C(F)(F)F)nn1-c1ncccc1Cl (centres unmarked) [Compound 64] | ≤ 20% | ≤ 20% | – | – | –
